Some of the results follow.
Columns and labels:
Assay in all cases: log2 fold change, soluble protein after heating vs DMSO (PISA); higher = thermal stabilisation; K562 lysate, 10 uM; active = over 0.2 and 3.5 SD of the protein, either way, in both replicates (recomputed)
[1] = compound: C#Cc1cccc(Nc2ncnc3cc(OCCOC)c(OCCOC)cc23)c1 [erlotinib]
In short: (§1)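 Quantification was by TMTpro 16plex LC-MS/MS with equalised channel sums, applied to the supernatant after 21,000xg for 90 min. Samples were crude K562 extract at 1 mg/mL protein in PBS pH 7.4 with 1 mM MgCl2, treated with 10 μM compound for 30 min, heated for 3 min across 48°C-58°C, pooled and brought to 0.5% NP-40 at 4°C. Values are log-two fold changes in thermal stability relative to solvent controls, from duplicates.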

The chains behind the UniProt entries cited, without tags or fusion partners. Where a name states a change or a piece, a line headed by the entry shows the natural chain unless it says otherwise.
UniProt Q6VN20, whole entry, looked up: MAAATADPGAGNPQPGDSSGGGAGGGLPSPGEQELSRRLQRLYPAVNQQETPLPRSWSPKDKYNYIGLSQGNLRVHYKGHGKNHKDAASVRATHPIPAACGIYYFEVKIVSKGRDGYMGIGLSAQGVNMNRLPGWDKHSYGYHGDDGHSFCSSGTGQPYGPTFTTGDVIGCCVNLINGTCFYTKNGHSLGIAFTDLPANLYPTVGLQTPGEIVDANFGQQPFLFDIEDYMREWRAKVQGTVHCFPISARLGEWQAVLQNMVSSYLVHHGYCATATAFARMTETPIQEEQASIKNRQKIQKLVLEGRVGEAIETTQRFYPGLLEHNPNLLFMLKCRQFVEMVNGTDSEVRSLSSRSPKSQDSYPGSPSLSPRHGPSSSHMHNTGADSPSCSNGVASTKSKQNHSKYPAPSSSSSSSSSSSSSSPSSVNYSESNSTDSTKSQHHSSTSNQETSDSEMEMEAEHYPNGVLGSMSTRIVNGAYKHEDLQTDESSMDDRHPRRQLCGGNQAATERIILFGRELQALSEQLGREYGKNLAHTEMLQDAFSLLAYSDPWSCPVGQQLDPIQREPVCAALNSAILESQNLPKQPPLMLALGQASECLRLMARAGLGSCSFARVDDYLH
UniProt Q9Y3T6: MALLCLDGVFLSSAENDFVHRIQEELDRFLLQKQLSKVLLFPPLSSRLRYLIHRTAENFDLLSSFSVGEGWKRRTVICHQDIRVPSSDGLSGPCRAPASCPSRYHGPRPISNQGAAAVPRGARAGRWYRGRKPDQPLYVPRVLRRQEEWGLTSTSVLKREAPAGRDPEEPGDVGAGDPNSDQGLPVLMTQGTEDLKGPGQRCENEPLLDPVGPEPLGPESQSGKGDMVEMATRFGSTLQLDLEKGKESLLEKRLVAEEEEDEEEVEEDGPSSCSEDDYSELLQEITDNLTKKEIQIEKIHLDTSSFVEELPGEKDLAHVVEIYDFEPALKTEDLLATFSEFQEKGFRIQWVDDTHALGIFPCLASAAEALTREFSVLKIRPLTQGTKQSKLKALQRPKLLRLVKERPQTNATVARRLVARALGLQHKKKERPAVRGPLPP
UniProt Q8WZA2: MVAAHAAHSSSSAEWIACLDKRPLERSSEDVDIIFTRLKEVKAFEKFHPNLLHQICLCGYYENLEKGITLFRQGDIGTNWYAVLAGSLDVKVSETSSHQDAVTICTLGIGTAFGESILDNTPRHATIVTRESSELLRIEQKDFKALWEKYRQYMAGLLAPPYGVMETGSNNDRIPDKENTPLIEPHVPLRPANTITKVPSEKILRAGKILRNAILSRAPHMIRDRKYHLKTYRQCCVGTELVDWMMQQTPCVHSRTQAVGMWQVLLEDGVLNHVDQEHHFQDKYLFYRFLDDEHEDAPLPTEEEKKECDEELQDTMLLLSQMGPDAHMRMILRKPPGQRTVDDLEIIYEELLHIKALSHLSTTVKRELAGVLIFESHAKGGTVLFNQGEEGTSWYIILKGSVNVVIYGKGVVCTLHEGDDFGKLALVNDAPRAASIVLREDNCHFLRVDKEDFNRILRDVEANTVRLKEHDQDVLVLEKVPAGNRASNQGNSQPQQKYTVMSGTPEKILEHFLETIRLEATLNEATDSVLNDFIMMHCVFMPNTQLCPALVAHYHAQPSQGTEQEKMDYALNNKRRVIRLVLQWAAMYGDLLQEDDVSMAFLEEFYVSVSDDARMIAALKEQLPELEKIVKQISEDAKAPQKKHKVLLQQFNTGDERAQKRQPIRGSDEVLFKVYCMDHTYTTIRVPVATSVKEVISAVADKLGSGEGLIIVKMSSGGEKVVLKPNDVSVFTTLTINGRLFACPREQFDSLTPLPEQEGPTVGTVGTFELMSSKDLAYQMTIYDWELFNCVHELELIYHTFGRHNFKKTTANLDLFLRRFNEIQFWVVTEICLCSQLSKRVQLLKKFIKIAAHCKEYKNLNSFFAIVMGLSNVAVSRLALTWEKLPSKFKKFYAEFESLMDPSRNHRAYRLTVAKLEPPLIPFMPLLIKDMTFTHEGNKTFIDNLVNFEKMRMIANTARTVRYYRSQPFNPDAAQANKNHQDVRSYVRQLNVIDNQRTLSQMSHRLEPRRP
UniProt Q9H082: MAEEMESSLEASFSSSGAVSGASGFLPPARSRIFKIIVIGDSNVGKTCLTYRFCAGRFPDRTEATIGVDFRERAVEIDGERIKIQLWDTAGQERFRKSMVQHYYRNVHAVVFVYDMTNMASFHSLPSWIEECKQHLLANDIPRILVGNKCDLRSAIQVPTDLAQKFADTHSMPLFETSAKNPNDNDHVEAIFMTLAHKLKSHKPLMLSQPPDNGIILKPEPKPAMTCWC
UniProt Q7Z6M1: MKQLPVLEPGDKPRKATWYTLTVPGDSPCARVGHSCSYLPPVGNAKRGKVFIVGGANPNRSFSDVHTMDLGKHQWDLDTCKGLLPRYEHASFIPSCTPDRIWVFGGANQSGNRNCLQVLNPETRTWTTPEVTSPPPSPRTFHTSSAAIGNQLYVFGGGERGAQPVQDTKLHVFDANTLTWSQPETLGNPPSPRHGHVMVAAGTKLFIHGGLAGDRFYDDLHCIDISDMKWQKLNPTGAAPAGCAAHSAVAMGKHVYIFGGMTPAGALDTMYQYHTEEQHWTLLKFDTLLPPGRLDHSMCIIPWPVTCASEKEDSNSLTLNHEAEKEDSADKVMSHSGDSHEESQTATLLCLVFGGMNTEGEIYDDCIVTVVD
UniProt P20339: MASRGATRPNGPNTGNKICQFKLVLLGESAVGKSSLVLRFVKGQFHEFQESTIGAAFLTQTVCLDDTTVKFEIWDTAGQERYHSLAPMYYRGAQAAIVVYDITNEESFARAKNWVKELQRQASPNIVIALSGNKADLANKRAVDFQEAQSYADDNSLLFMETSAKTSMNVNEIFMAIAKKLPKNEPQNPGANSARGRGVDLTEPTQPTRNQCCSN
UniProt P49023, whole entry, looked up: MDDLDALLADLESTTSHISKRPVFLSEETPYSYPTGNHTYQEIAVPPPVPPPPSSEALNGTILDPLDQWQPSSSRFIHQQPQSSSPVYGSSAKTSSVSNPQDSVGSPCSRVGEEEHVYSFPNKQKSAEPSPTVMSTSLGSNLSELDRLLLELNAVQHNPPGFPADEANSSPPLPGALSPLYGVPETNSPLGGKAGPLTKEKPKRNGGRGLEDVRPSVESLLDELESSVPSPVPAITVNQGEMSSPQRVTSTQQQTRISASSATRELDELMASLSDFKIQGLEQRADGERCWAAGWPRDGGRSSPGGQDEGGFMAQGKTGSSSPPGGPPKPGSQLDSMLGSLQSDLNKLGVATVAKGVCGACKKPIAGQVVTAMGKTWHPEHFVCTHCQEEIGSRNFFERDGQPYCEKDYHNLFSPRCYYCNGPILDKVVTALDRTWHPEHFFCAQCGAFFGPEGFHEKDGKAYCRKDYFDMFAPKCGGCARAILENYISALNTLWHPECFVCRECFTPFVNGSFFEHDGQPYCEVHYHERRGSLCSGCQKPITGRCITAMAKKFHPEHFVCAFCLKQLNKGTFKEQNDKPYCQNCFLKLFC
UniProt Q9NS91, whole entry, looked up: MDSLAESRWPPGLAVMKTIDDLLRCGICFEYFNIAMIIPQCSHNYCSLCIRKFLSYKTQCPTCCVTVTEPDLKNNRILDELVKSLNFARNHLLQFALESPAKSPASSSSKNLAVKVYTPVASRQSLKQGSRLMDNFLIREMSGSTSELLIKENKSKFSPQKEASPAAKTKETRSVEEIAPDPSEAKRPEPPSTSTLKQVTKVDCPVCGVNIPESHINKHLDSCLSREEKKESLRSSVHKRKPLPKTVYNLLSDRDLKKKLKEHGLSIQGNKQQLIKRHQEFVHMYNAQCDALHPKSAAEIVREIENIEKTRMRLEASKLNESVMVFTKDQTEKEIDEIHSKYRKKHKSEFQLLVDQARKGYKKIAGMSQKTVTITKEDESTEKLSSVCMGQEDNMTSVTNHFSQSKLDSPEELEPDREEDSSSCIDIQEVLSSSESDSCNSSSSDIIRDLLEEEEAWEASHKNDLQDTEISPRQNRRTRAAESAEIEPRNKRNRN
UniProt P06737: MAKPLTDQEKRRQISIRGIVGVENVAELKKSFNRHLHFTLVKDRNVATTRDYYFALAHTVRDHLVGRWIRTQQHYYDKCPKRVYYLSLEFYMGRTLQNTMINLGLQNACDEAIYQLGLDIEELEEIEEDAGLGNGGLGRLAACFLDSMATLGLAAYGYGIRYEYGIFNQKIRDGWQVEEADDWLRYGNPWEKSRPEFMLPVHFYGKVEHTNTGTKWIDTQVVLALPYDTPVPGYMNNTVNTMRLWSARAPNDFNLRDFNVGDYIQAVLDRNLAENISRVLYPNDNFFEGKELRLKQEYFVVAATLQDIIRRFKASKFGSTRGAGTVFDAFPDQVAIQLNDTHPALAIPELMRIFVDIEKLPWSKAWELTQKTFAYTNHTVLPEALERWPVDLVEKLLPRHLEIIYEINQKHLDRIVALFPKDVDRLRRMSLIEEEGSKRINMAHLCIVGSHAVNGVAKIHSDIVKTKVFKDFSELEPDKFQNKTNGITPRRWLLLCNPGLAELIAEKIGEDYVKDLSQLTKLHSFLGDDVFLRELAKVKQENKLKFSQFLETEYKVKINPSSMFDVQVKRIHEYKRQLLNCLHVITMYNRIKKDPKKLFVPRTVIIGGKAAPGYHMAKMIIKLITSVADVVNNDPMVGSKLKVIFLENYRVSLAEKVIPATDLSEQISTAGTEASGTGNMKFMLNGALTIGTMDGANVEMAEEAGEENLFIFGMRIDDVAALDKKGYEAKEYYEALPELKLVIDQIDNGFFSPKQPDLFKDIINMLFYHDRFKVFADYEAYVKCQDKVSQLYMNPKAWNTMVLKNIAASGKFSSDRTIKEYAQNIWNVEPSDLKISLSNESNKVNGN
UniProt Q9UI14, whole entry, looked up: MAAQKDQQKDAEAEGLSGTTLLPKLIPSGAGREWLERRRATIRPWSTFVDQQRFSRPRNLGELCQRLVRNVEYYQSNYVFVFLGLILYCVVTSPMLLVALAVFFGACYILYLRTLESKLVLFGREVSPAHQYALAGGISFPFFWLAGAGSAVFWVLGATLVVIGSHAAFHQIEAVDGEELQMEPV
UniProt P46060: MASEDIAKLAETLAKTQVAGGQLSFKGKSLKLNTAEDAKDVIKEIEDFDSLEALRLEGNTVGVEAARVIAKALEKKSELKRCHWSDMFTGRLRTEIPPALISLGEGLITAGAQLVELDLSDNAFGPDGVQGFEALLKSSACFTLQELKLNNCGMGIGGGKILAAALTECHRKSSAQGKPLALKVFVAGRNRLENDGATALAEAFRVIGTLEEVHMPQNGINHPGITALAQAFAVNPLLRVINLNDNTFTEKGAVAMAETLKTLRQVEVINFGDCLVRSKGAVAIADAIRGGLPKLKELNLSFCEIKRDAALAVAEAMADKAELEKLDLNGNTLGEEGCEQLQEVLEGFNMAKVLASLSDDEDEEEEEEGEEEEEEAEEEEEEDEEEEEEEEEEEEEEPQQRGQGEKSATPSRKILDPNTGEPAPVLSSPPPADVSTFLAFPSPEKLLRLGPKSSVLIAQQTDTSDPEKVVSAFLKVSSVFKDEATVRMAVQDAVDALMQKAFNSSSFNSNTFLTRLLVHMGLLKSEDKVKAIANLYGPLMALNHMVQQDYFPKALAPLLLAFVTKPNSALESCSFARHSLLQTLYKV
UniProt P62820, whole entry, looked up: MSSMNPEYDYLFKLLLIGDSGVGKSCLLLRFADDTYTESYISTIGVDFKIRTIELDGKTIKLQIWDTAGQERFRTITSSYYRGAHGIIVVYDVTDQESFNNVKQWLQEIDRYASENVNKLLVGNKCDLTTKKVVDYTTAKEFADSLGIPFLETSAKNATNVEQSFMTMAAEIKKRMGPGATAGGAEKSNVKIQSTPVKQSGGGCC
UniProt Q96I23: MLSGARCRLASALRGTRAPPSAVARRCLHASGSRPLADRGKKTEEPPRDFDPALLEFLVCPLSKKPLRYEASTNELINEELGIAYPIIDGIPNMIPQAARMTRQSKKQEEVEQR
UniProt Q9NXS2: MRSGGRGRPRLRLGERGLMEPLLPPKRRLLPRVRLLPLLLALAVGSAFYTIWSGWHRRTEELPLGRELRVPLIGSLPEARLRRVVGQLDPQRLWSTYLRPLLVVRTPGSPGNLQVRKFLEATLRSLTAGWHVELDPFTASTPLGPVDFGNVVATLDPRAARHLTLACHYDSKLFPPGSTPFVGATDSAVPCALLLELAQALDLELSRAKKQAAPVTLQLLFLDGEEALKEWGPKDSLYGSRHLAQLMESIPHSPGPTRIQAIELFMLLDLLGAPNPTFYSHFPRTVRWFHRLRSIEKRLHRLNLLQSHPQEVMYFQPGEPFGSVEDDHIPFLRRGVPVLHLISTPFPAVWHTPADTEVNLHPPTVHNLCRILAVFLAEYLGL
UniProt P20336: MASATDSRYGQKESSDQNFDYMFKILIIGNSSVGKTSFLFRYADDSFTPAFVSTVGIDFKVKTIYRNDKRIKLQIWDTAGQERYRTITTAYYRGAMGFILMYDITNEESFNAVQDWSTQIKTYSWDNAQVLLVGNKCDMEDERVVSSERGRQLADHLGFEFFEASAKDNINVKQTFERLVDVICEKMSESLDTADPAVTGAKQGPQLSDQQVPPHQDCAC

[2] = compound: C/C(=N\NC(=O)C1=CC(=CC=C1)S(=O)(=O)N2CCOCC2)/C3=C(C=CC(=C3)Cl)O
In short: as §1

[3] = compound: C1=CC(=CC=C1C2=NC3=C(N2)C=C(C=C3)C(=O)N)OC4=CC=C(C=C4)Cl
In short: as §1

[4] = compound: C1=CC2=C(C=CC(=C2)/C=C\3/C(=O)NC(=NCC4=CC=CS4)S3)N=C1
In short: as §1

[5] = compound: C1=CC2=NC=CN=C2C=C1/C=C/3\C(=O)NC(=O)S3
In short: as §1

[6] = compound: C1=CC=C(C=C1)C2=NC(=C(N2)C3=CC=NC=C3)C4=CC(=C(C=C4)Cl)O
In short: as §1

[7] = compound: C1=CC=C2C(=C1)C3=NNC4=CC=CC(=C43)C2=O
In short: as §1

[8] = compound: C1CCN(C1)C(=O)NC2=CC=CC(=C2)NC3=NC=C(C(=N3)NCCC4=CN=CN4)Br
In short: as §1

[9] = compound: C1CN(CCC1(CC2=CC=C(C=C2)Cl)N)C3=NC=NC4=C3C=CN4
In short: as §1

[10] = compound: C1COCCN1CCN2C3=CC=CC=C3N=C2NC(=O)C4=CC(=CC=C4)[N+](=O)[O-] [IRAK-1-4 Inhibitor I]
In short: as §1

Measured: log2 fold change

RANBP10 (UniProt Q6VN20)
inactive: [1] -0.051 | [2] 0.05 | [3] 0.02 | [4] 0.001 | [5] -0.026 | [6] 0.027 | [7] -0.014 | [8] 0.032 | [9] -0.027 | [10] 0.027

RAD50 isoform 2 (UniProt Q92878)
inactive: [1] -0.009 | [2] -0.007 | [3] 0.019 | [4] 0.006 | [5] -0.014 | [6] -0.023 | [7] -0.039 | [8] 0.005 | [9] -0.01 | [10] -0.054

RANBP6 (UniProt O60518)
inactive: [1] 0.045 | [2] -0.043 | [3] -0.003 | [4] -0.034 | [5] 0.061 | [6] 0.027 | [7] 0.021 | [8] 0.044 | [9] -0.019 | [10] 0.04

Reprinted from the entries so far (2 entries):
RANBP10 (UniProt Q6VN20)
inactive: [1] -0.051 | [2] 0.05 | [3] 0.02 | [4] 0.001 | [5] -0.026 | [6] 0.027 | [7] -0.014 | [8] 0.032 | [9] -0.027 | [10] 0.027

RAD50 isoform 2 (UniProt Q92878)
inactive: [1] -0.009 | [2] -0.007 | [3] 0.019 | [4] 0.006 | [5] -0.014 | [6] -0.023 | [7] -0.039 | [8] 0.005 | [9] -0.01 | [10] -0.054

(cont.)

R3HCC1 (UniProt Q9Y3T6)
inactive: [1] -0.015 | [2] -0.118 | [3] 0.055 | [4] 0.074 | [5] -0.086 | [6] 0.071 | [7] -0.008 | [8] 0.006 | [9] -0.016 | [10] -0.044

RABGAP1L isoform 5 (UniProt Q5R372)
inactive: [1] 0.045 | [2] 0.004 | [3] -0.077 | [4] 0.008 | [5] -0.02 | [6] -0.002 | [7] -0.054 | [8] -0.061 | [9] 0.01 | [10] 0.052

RAPGEF4 (UniProt Q8WZA2)
inactive: [1] 0.181 | [2] 0.057 | [3] 0.049 | [4] -0.016 | [5] -0.019 | [6] -0.092 | [7] -0.195 | [8] -0.043 | [9] 0.12 | [10] 0.184

RAB33B (UniProt Q9H082)
inactive: [1] -0.096 | [2] 0 | [3] 0.013 | [4] -0.042 | [5] -0.075 | [6] -0.043 | [7] -0.252 | [8] -0.01 | [9] 0.025 | [10] 0.041

RABEPK (UniProt Q7Z6M1)
inactive: [1] -0.01 | [2] 0.014 | [3] 0.012 | [4] 0.004 | [5] 0.032 | [6] 0.007 | [7] -0.024 | [8] -0.03 | [9] -0.032 | [10] 0.014

RAB30 (UniProt Q15771)
inactive: [1] 0.07 | [2] -0.162 | [3] -0.035 | [4] -0.072 | [5] -0.087 | [7] -0.034 | [8] -0.044 | [9] -0.076

RAD23A (UniProt P54725)
inactive: [1] -0.044 | [2] 0.016 | [3] -0.04 | [4] -0.059 | [5] -0.047 | [6] -0.027 | [7] 0.026 | [8] 0.025 | [9] -0.052 | [10] -0.022

RAB5A (UniProt P20339)
inactive: [1] -0.003 | [2] -0.074 | [3] 0.085 | [4] 0.044 | [5] 0.026 | [6] 0.015 | [7] 0.023 | [8] -0.008 | [9] 0.016 | [10] -0.016

PXN isoform 3 (UniProt P49023)
inactive: [1] 0.021 | [2] -0.038 | [3] 0.041 | [4] 0.013 | [5] 0.007 | [6] 0.014 | [7] 0.028 | [8] -0.058 | [9] 0.025 | [10] -0.004

PYCARD (UniProt Q9ULZ3)
inactive: [1] 0.013 | [2] -0.013 | [3] 0.004 | [4] 0.004 | [5] -0.007 | [6] 0.016 | [7] -0.007 | [8] 0.014 | [9] 0.009 | [10] 0.003

RAP1GDS1 isoform 5 (UniProt P52306)
inactive: [1] 0.045 | [2] 0.014 | [3] 0.027 | [4] -0.009 | [5] -0.009 | [6] -0.012 | [7] -0.007 | [8] 0.022 | [9] -0.002 | [10] 0.026

RANBP2 (UniProt P49792)
inactive: [1] 0.017 | [2] 0.014 | [3] -0.004 | [4] -0.011 | [5] -0.012 | [6] -0.004 | [7] -0.038 | [8] -0.001 | [9] -0.007 | [10] -0.019

RAP2B (UniProt P61225)
inactive: [1] 0.017 | [2] -0.364 | [3] 0.002 | [4] -0.004 | [5] -0.023 | [6] -0.009 | [7] -0.032 | [8] -0.028 | [9] 0.068 | [10] 0

RACK1 (UniProt P63244)
inactive: [1] 0.003 | [2] 0.05 | [3] -0.011 | [4] -0.013 | [5] -0.003 | [6] 0.012 | [7] 0.001 | [8] -0.005 | [9] 0.003 | [10] 0.002

RAB9A (UniProt P51151)
inactive: [1] 0.012 | [2] -0.07 | [3] -0.037 | [4] -0.003 | [5] -0.029 | [6] -0.013 | [7] 0.062 | [8] 0 | [9] 0.009 | [10] 0.026

RANBP1 (UniProt P43487)
inactive: [1] -0.004 | [2] -0.02 | [3] -0.012 | [4] -0.026 | [5] 0.014 | [6] 0.009 | [7] 0.031 | [8] 0.021 | [9] 0.004 | [10] -0.002

RAD18 (UniProt Q9NS91)
inactive: [1] -0.006 | [2] -0.063 | [3] -0.028 | [4] 0.033 | [5] -0.022 | [6] -0.023 | [7] 0.001 | [8] 0.014 | [9] -0.022 | [10] -0.018

PYGL (UniProt P06737)
inactive: [1] -0.03 | [2] 0.056 | [3] -0.012 | [4] -0.027 | [5] -0.011 | [6] -0.001 | [7] 0.086 | [8] 0.007 | [9] 0.015 | [10] -0.002

RABAC1 (UniProt Q9UI14)
inactive: [1] -0.004 | [2] 0.154 | [3] 0.044 | [4] 0.017 | [5] 0.003 | [6] 0 | [7] 0.014 | [8] 0.024 | [9] -0.023 | [10] 0.106

RANGAP1 (UniProt P46060)
inactive: [1] 0.014 | [2] -0.005 | [3] -0.011 | [4] 0.003 | [5] 0.005 | [6] 0.008 | [7] 0.022 | [8] 0 | [9] -0.008 | [10] 0.001

RAP2A (UniProt P10114)
inactive: [1] 0.059 | [2] 0.058 | [3] 0.031 | [4] 0.035 | [5] -0.068 | [6] 0.026 | [7] 0.022 | [8] -0.009 | [9] 0.061 | [10] 0.01

R3HDM1 isoform 3 (UniProt Q15032)
inactive: [1] -0.06 | [2] -0.061 | [3] 0.1 | [4] -0.017 | [5] 0.066 | [6] -0.003 | [7] -0.033 | [8] 0.01 | [9] 0.028 | [10] 0.026

RAB1A (UniProt P62820)
inactive: [1] -0.059 | [2] -0.018 | [3] -0.006 | [4] -0.008 | [5] -0.024 | [6] -0.002 | [7] 0.024 | [8] -0.007 | [9] -0.004 | [10] -0.009

PYURF (UniProt Q96I23)
inactive: [1] -0.019 | [2] 0.113 | [3] 0.117 | [4] 0.056 | [5] 0.087 | [6] -0.09 | [7] -0.108 | [8] 0.035 | [9] 0.07 | [10] -0.086

RAN (UniProt P62826)
inactive: [1] -0.026 | [2] 0.041 | [3] 0.014 | [4] -0.022 | [5] -0.003 | [6] 0.003 | [7] 0 | [8] 0.02 | [9] 0.001 | [10] 0.006

QPCTL (UniProt Q9NXS2)
inactive: [1] -0.03 | [2] -0.164 | [3] -0.066 | [4] 0.058 | [5] -0.003 | [6] 0.01 | [7] 0.069 | [8] -0.047 | [9] 0.006 | [10] -0.042

PXMP4 (UniProt Q9Y6I8)
inactive: [1] 0.024 | [2] 0.068 | [3] 0.084 | [4] -0.053 | [5] 0.013 | [6] 0.053 | [7] -0.038 | [8] 0.043 | [9] 0.022 | [10] 0.016

RAB3A (UniProt P20336)
inactive: [1] -0.022 | [2] 0.074 | [3] 0.039 | [4] 0.024 | [5] -0.045 | [6] 0.026 | [7] -0.022 | [8] 0.037 | [9] 0.02 | [10] 0
